{
  "source": "paper PMC12071194",
  "binders": {"B1": {"name": "WIPI2 (protein, UniProt Q9Y4P8 1-454)", "chain": "MNLASQSGEAGAGQLLFANFNQDNTEVKGASRAAGLGRRAVVWSLAVGSKSGYKFFSLSSVDKLEQIYECTDTEDVCIVERLFSSSLVAIVSLKAPRKLKVCHFKKGTEICNYSYSNTILAVKLNRQRLIVCLEESLYIHNIRDMKVLHTIRETPPNPAGLCALSINNDNCYLAYPGSATIGEVQVFDTINLRAANMIPAHDSPLAALAFDASGTKLATASEKGTVIRVFSIPEGQKLFEFRRGVKRCVSICSLAFSMDGMFLSASSNTETVHIFKLETVKEKPPEEPTTWTGYFGKVLMASTSYLPSQVTEMFNQGRAFATVRLPFCGHKNICSLATIQKIPRLLVGAADGYLYMYNLDPQEGGECALMKQHRLDGSLETTNEILDSASHDCPLVTQTYGAAAGKGTYVPSSPTRLAYTDDLGAVGGACLEDEASALRLDEDSEHPPMILRTD"}},
  "biological_target": "mCherry-BNIP3 (WT)",
  "test": "co-IP; RFP-trap magnetic agarose on lysates (0.5% triton X-100 buffer) of B/N DKO HeLa cells expressing mCherry-BNIP3 or mCherry-NIX; cells cultured with 1 mM DFP for 12 h, then 12 h more with 100 nM bafilomycin A1 and DFP; immunoblot",
  "note": "These are yes or no findings as the source states them, for the method shown. In cells and extracts the contact can be indirect. Binding calls can cover weak binding; strength is not graded here.",
  "data": [
    {"binder": "B1", "values": [
      {"measurement": "binding", "result": "binds weakly"}
    ]}
  ]
}
